# Literature values, collected in patent publication EP4212633A1 (priority 2022, dated 2023).
# For at least one compound, name, drawing or mass did not settle the structure.
# Test system: SARS-CoV-2
# Details: Wang et al., 2020, Zhang et al.; cited from earlier work
smiles,measurement,value
CCC(CC)COC(=O)[C@H](C)N[P@](=O)(OC[C@H]1O[C@@](C#N)(c2ccc3c(N)ncnn23)[C@H](O)[C@@H]1O)Oc1ccccc1 [remdesivir],antiviral activity,two- or three-digit micromolar range
